Laboratory results taken from paper PMC5352298 (Pharmacological research, 2016).

Legend:
rat sciatic nerve = assay: Sciatic nerve compound action potential; settings: 1mM
[1] = test system: mice (acetic-acid induced abdominal constriction); settings: cited from earlier work

Compound	peak-to-peak area ratio (PAR) of A and C fibers, tonic stimulation (rat sciatic nerve; 0.2 Hz)	ratio between last and first CAP (Δf), phasic stimulation (rat sciatic nerve; 40 Hz, p<0.001)	ED50 in the writhing model [1]
CCN(CC)CC(=O)Nc1c(C)cccc1C [lidocaine, Lidocaine]	significantly decreased the PAR value	38.5%	–
COc1ccc2cc([C@H](C)C(=O)O)ccc2c1 [naproxen]	–	–	13 mg/kg
